Article PMC4408062
Results are given in words; binding and its absence hold for the method and conditions named. For part of these data: In cells and extracts the contact can be indirect. Some results given as binding are weak or reduced against the parent protein; the word gives no strength.

Key:
[1] = molecular target: LDLR-ECD-6xHis (UniProt P01130); assay: ELISA; MaxiSorp plates coated with 5 μg/ml LDLR-ECD, APLP2-ECD at varying concentrations, pH 7.4; also 5 μg/ml APLP2-ECD with increasing PCSK9; detected with mouse anti-human APLP2 and goat anti-mouse HRP; both purified
[2] = molecular target: Low density lipoprotein receptor (LDLR), in HepG2 cells (human (endogenous in HepG2)) (UniProt P01130); assay: co-IP; HepG2 cells lysed directly on the plate (compared with Accutase harvest; also Neg or LDLR siRNA treated cells); coIP buffer 20mM Hepes pH 7.4, 20mM CaCl2, 150mM NaCl, 0.1% Triton x-100; 10 μg/ml J16, anti-LDLR, anti-APLP2 or IC antibody with mAb select protein A beads overnight; western blot
[3] = molecular target: Low density lipoprotein receptor (LDLR), in HepG2 cells (human (endogenous in HepG2)) (UniProt P01130); assay: co-IP; as a1 at pH 7.4, with 10 μg/ml Fab fragments (5F6, 12E3 or J16) added to the IPs

Row | binding [1] | binding [2] | binding [3] | Substance
1 | binds |  |  | Recombinant APLP2-ECD (from UniProt Q06481 32-692) (domain or fragment)
2 |  | binds | binds | Amyloid precursor like protein 2 (APLP2), in HepG2 cells (from UniProt Q06481 32-763)
